For at least one entry, the source does not settle the construct or the ends of the probe. The comparison behind a weaker result is the experiment's own reference, which may not be listed here. At least one verdict rests on a figure or table, not on a statement of the authors.

Amino acid sequences for entries named in this document (tags omitted). A change or cut given only in a name is not applied to a line headed by its entry.
UniProt P0AFJ5: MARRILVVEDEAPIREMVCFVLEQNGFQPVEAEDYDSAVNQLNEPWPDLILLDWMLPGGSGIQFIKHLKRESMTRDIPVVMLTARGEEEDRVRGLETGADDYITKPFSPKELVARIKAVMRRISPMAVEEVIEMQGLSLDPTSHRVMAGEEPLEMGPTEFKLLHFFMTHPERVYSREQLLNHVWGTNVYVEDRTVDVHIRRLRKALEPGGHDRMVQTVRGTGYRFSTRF

We go through 11 sequences from paper PMC3465305.

This series deals with PhoB-His(6x), phosphorylated (UniProt P0AFJ5). As to the kind of experiment: EMSA. To be noted: acetylphosphate-treated PhoB, 10 mM Mg2+, 20 mM Tris-HCl pH 7.0, 50 mM NaCl, 1 mM DTT, 10 mM MgCl2, 100 ug/ml BSA, 0.5 ug/ml poly dI-dC, 20 fmol DNA, 37 C 15 min, 6% native PAGE in 0.5x TBE, recombinant protein, label: 3'-biotin. A general note: In EMSA bound probe runs differently from free probe, usually more slowly.

With “TGGCAATCGCTTATTGGCAAAATGACAATTTTGTCATTTTTCTGTCACCGGAAAATCAGA (double strand) [cusR site]”, the binding result (0-35 uM) is “binds”.
With “TATCCGCCACGGGGAGTAATAGTCACAGATATATTAATGATAATCACTATCACCATATCG (double strand) [yahA coding site]”, the binding result is “binds more weakly”.
As to “CCGAATATTGGGTTTAGTCTTGTTTCATAATTGTTGCAATGAAACGCGGTGAAACATTGC (double strand) [prpR site]”, under “0-35 uM”, the binding result is “binds”.
In the case of “GTTTTCGTTATCAGATAATCGATGTCAAAAAAATGCCACTCGGCAGCGTCACCAAGATCT (double strand) [cof coding site]”, the binding result was “binds”.
Turning to “TTGCGATACGGTATTTCTTATCTGTAATAAAAATTTCACCCGCAGACTTCTGTTATTCAA (double strand) [yddV coding site]”, the binding result was “binds”.
Turning to “TGAGAAATCGCCACATTCGGCATGACAACATTGTGAAACCCGGCATTAGATGTTAGAAAA (double strand) [yhjC site]”, the binding result (0-35 uM) was “binds more weakly”.
Still for that read-out and setting: the result for “TCAACAACTCATCCATAAATTTTGCATAATTAATGTAAAGACCAGGCTCGCCAGTAACGC (double strand) [mipA site]” reads “binds”; that for “ATGTTATAGAAACAGCCTGGTTCATTACAAAATTGTAATGCTGCTGTAAGGTTACCCTGG (double strand) [yedX site]”, “binds”; that for “TCTGTGAAATGTATTTTTATTGTTGCATTTGTGTTGCAATAAACGAAGCTAATGAGCCTG (double strand) [feaR site]”, “binds”.
Consider “GCGTAACTGCCGGGTTATTGCTTGTCACAAAAAAGTGGTAGACTCATGCAGTTAACTCAC (double strand) [ydfH site]”, for which the binding result (0-35 uM) was “binds more weakly”.
In the case of “CGATTTATCCATGATCGAATTGTGACATTTGTCATACAACGAATAGGTTTTGTACTTACT (double strand) [yegH site]”, the binding result (0-35 uM) is reported as “binds”.
